Values quoted from earlier work in patent publication US9464045B2, “Process for the preparation of methionine” (EVONIK DEGUSSA GmbH, priority 2012, dated 2016).
Some entries share one result that the patent states for a list of compounds.

Settings: methionine crystals, additive during crude methionine precipitation; cited from earlier work

Row | Substance | bulk density
1 | casein | up to 770 g/l
2 | sorbitan laurate | up to 770 g/l
